Measured values from the supplement of paper PMC4683952.
Some of the results follow. Cut-off read from the data, not from the text of the source: active = 2 or more and inactive = the rest. Repeats in this data set agree poorly, so a single value says little.

Test system: Lgr5 (MarsCy1-Lgr5-EGFP, U2OS)
Assay: cell-surface Lgr5 expression (SCi1 fluorescence, background-subtracted) relative to WT DMSO (fold of DMSO control); higher = more Lgr5 at the plasma membrane
Settings: U2OS MarsCy1-Lgr5-EGFP stable; treatment time: overnight; library: ActiProbe-5K (TimTec); 25 µM

Which “cell-surface Lgr5 expression” value does the source give for `Cc1ccc(C2=NNC(C(O)C(O)C(O)C(C)O)S2)cc1` (stereo not given) here?
Its value is inactive: 1.09.

For `COc1ccc2nc(-n3cccc3)sc2c1`, which “cell-surface Lgr5 expression” value is on record?
The value was inactive: 1.02.

For `S=C(NC1CCCCC1)NN1CCOCC1`, which “cell-surface Lgr5 expression” value is on record?
The value was inactive: 1.18.

For `OCCNCC12CC3CC(CC(C3)C1)C2`, which “cell-surface Lgr5 expression” value is on record?
The value was inactive: 1.42.

Which “cell-surface Lgr5 expression” value does the source give for `CC1=CC(C)(C)N(S(=O)(=O)c2ccc(C)cc2)c2ccc(C)cc21` here?
The value was inactive: 1.58.

With `CCCCCCCCCCCc1nnc(N)s1` as the compound, how does the “cell-surface Lgr5 expression” value read?
Its value is inactive: 0.857.

Which “cell-surface Lgr5 expression” value does the source give for `O=C(O)[C@H]1CCCC[C@H]1C(=O)N[C@H]1CCCC[C@@H]1NC(=O)[C@H]1CCCC[C@H]1C(=O)O` here?
The value was inactive: 0.973.

`Fc1ccc(-c2cn3cc(Cl)ccc3n2)cc1` was tested. Which “cell-surface Lgr5 expression” value did it give?
The value was inactive: 0.968.

How did the “cell-surface Lgr5 expression” value turn out when `N#Cc1c(NC(=O)CSc2sc3c(O)nc(=O)[nH]c3c2C#N)sc2c1CCCC2` was run?
Its value is inactive: 1.3.

`COc1ccc(-c2nc(C(F)(F)F)c(OC)o2)cc1OC` was tested. Which “cell-surface Lgr5 expression” value did it give?
Its value is inactive: 1.28.

How did the “cell-surface Lgr5 expression” value turn out when `CC(O)CNC12CC3CC(CC(C3)C1)C2` (stereo not given) was run?
Its value is inactive: 1.5.

How did the “cell-surface Lgr5 expression” value turn out when `N#C/C(=C/c1cc(Br)cs1)C(N)=S` was run?
The value was inactive: 1.37.

With `Nc1ccc2ccc(O)nc2n1` as the compound, how does the “cell-surface Lgr5 expression” value read?
Its value is inactive: 1.3.

For `Clc1ccc2c(c1)CN(Cc1ccc3c(c1)OCO3)CO2`, which “cell-surface Lgr5 expression” value is on record?
Its value is inactive: 1.37.

Which “cell-surface Lgr5 expression” value does the source give for `C/C(=N\NC(N)=S)c1cccs1` here?
The value was inactive: 1.09.

With `CCN(CC)Cc1c(C(=O)NN)nnn1-c1nonc1N` as the compound, how does the “cell-surface Lgr5 expression” value read?
Its value is inactive: 1.24.

How did the “cell-surface Lgr5 expression” value turn out when `N#CCN(CC#N)S(=O)(=O)c1ccc(F)cc1` was run?
The value was inactive: 0.958.

`COC(=O)Cc1ccc(C(=O)CCCCCCCCCl)s1` was tested. Which “cell-surface Lgr5 expression” value did it give?
Its value is inactive: 1.07.

For `CC(=O)CC12CC3CC(CC(C3)C1)C2`, which “cell-surface Lgr5 expression” value is on record?
The value was inactive: 1.14.

Which “cell-surface Lgr5 expression” value does the source give for `CNc1nc(NCCOC23CC4CC(CC(C4)C2)C3)nc(OCC(F)(F)F)n1` here?
The value was inactive: 0.983.

For `Cc1nc(Nc2ccc3c(c2)OCCO3)nc(Nc2ccc3c(c2)OCCO3)c1[N+](=O)[O-]`, which “cell-surface Lgr5 expression” value is on record?
Its value is inactive: 0.835.

Which “cell-surface Lgr5 expression” value does the source give for `O=C(O)CCNc1n[nH]c(=O)[nH]c1=O` here?
The value was inactive: 1.26.

How did the “cell-surface Lgr5 expression” value turn out when `CCOC(=O)Cn1nnc(-c2nnn(CC(=O)OCC)n2)n1` was run?
The value was inactive: 1.18.

For `c1ccc(CN2CCN(Cc3ccccc3)C2c2ccc3ccccc3c2)cc1`, which “cell-surface Lgr5 expression” value is on record?
The value was inactive: 1.22.

For `[O-][n+]1onc(-c2ccccc2)c1/N=N\c1c(-c2ccccc2)no[n+]1[O-]`, which “cell-surface Lgr5 expression” value is on record?
Its value is inactive: 0.85.

How did the “cell-surface Lgr5 expression” value turn out when `O=[N+]([O-])c1ccc(C2COC(c3ccc(Cl)cc3)O2)cc1` (stereo not given) was run?
The value was inactive: 1.01.

With `Cc1nc2c(c(-n3nc(N)c(C#N)n3)nn2C)c(C)c1Cl` as the compound, how does the “cell-surface Lgr5 expression” value read?
The value was inactive: 1.39.

`O=C1CC(=O)N(c2ccc(Br)cc2)N1` was tested. Which “cell-surface Lgr5 expression” value did it give?
The value was inactive: 1.04.

For `Cn1c(=O)c2c(nc3n2C(c2ccccc2)C(c2ccc(-c4ccccc4)cc2)=NN3)n(C)c1=O` (stereo not given), which “cell-surface Lgr5 expression” value is on record?
The value was inactive: 1.18.

`CCCCCCCCCCn1c(SCC)nc2c1c(=O)[nH]c(=O)n2C` was tested. Which “cell-surface Lgr5 expression” value did it give?
Its value is inactive: 1.48.

With `CCC(=O)c1c(N2CCCC2)cc(C)oc1=O` as the compound, how does the “cell-surface Lgr5 expression” value read?
Its value is inactive: 1.03.

With `Cc1n[nH]c(=O)c2nc(-c3ccncc3)[nH]c12` as the compound, how does the “cell-surface Lgr5 expression” value read?
The value was inactive: 1.08.

`CCS(=O)(=O)c1nc(-c2ccc(C)cc2)cc(C(F)(F)F)n1` was tested. Which “cell-surface Lgr5 expression” value did it give?
Its value is inactive: 0.754.

Which “cell-surface Lgr5 expression” value does the source give for `Cc1cc(C)c(CSc2nc(N)cc(O)n2)c(C)c1` here?
The value was inactive: 1.43.

With `O=C(O)C12CC3CC(C1)CC(n1cnc(Cl)n1)(C3)C2` as the compound, how does the “cell-surface Lgr5 expression” value read?
Its value is inactive: 1.09.

With `C=CCOc1c(Br)cc(Br)cc1/C=C1\NC(=S)NC1=O` as the compound, how does the “cell-surface Lgr5 expression” value read?
Its value is inactive: 1.08.

For `O=C(N1CCCCC1)C12CC3CC(CC(C3)C1)C2`, which “cell-surface Lgr5 expression” value is on record?
Its value is inactive: 1.05.

For `Cc1cc2c(c(=O)o1)C(c1ccoc1)C(C#N)=C(N)O2` (stereo not given), which “cell-surface Lgr5 expression” value is on record?
Its value is inactive: 1.21.

How did the “cell-surface Lgr5 expression” value turn out when `O=[N+]([O-])c1c(-c2cn[nH]c2)n[nH]c1-c1cn[nH]c1` was run?
Its value is inactive: 1.12.

For `O=[N+]([O-])c1ccc(Nc2nnc(S)s2)cc1`, which “cell-surface Lgr5 expression” value is on record?
The value was inactive: 1.33.

How did the “cell-surface Lgr5 expression” value turn out when `Cc1cc(C(F)(F)F)c(C#N)c(=O)[nH]1` was run?
The value was inactive: 1.27.

Which “cell-surface Lgr5 expression” value does the source give for `O=[N+]([O-])c1ccc2c(c1)oc1ccc(S(=O)(=O)NC3CCCCC3)cc12` here?
The value was inactive: 1.69.

With `CCOc1nc(C#N)nc(N2CCCCC2)n1` as the compound, how does the “cell-surface Lgr5 expression” value read?
The value was inactive: 0.783.

Which “cell-surface Lgr5 expression” value does the source give for `CC(=O)NCC1=C(NC(C)=O)C2CC1C(C)(C)C2C` (stereo not given) here?
Its value is inactive: 0.999.

How did the “cell-surface Lgr5 expression” value turn out when `NC(=O)N1CCC(CCCC2CCN(C(N)=O)CC2)CC1` was run?
The value was inactive: 1.1.

Which “cell-surface Lgr5 expression” value does the source give for `Clc1ccc2nc(N/N=C/c3ccc4c(c3)OCO4)nc(-c3ccccc3)c2c1` here?
The value was inactive: 1.14.

`CCOC(=O)Nc1ccc(C)s1` was tested. Which “cell-surface Lgr5 expression” value did it give?
Its value is inactive: 1.23.

For `COC(=O)c1c(NC(=O)/C=C\C(=O)O)sc2c1CCC2`, which “cell-surface Lgr5 expression” value is on record?
Its value is inactive: 1.67.

How did the “cell-surface Lgr5 expression” value turn out when `O=S(=O)(c1ccc2ccccc2c1)N1CCc2ccccc21` was run?
The value was inactive: 1.23.

How did the “cell-surface Lgr5 expression” value turn out when `COC(=O)CSc1nnc(-c2cccs2)o1` was run?
The value was inactive: 1.18.

For `N#Cc1c(SCC(=O)Nc2nncs2)sc2c(O)nc(=O)[nH]c12`, which “cell-surface Lgr5 expression” value is on record?
The value was inactive: 1.04.

`Cc1ncc([N+](=O)[O-])n1CCN` was tested. Which “cell-surface Lgr5 expression” value did it give?
Its value is inactive: 1.2.

`Cn1cccc1/C=N\NC(=O)CCCC(=O)N/N=C/c1cccn1C` was tested. Which “cell-surface Lgr5 expression” value did it give?
Its value is inactive: 1.05.

How did the “cell-surface Lgr5 expression” value turn out when `N#Cc1cc2ccccc2oc1=N` was run?
The value was inactive: 1.84.

Which “cell-surface Lgr5 expression” value does the source give for `Cc1c(Br)c([N+](=O)[O-])nn1CC(=O)NC(C)C1CC2CCC1C2` (stereo not given) here?
The value was inactive: 1.22.
